# Literature values as cited in US20050049293A1, “Use of cholinesterase antagonists to treat insulin resistance” (priority 2002, published 2005).
# How the values were obtained:
# [1] = test system: glucose uptake across organs; conditions: cats, following atropine; cited from earlier work
# [2] = test system: hepatic uptake of glucose; conditions: after atropine; reduced from 80%; cited from earlier work
smiles,measurement,setting,value
CN1[C@@H]2CC[C@H]1C[C@@H](OC(=O)C(CO)c1ccccc1)C2 (stereo partly drawn) [atropine],Glucose uptake across the hindlimbs (skeletal muscle) in response to insulin,[1],decreased
same,Hepatic glucose response to insulin,[1],not notably altered
same,Proportion of glucose sequestered by the liver following oral administration,[2],44%
